Test results from publication PMC6933005.
Results are given in words; binding and its absence hold for the method and conditions named. In cells and extracts the contact can be indirect. Some entries that bind do so weakly or less than the wild type.

Sequences of proteins named here, by UniProt entry; tags and fusion partners are left off.
UniProt Q59KY8: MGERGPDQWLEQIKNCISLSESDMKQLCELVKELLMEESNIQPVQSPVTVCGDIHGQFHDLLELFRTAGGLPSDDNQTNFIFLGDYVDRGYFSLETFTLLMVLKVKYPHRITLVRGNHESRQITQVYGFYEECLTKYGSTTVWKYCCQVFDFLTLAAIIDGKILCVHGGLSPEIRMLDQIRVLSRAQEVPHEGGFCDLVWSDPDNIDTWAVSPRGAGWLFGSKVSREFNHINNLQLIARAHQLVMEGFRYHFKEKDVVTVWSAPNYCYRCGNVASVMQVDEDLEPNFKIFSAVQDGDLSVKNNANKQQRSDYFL

What was measured:
[1] = biological target: CaSap155 (orf19.642) tagged with GFP at the C-terminus (Sap155-GFP) (C. albicans) (UniProt Q59QN2); test: co-IP; anti-GFP conjugated beads used for pull-down from log-phase C. albicans yeast cell lysates; pull-down products probed with anti-GFP or anti-Flag in Western blot; repeated 3 times
[2] = biological target: CaSap190 (orf19.5160) tagged with GFP at the C-terminus (Sap190-GFP) (C. albicans); test: as above

| Substance | binding [1] | binding [2] |
| --- | --- | --- |
| CaSit4 tagged with Flag at the C-terminus (Sit4-Flag) (from UniProt Q59KY8 1-314) (enzyme) | binds | binds |
| CaSap155 (orf19.642) tagged with Flag at the C-terminus (Sap155-Flag) (from UniProt Q59QN2 1-924) | – | no binding |
